Data as given in the supplement of paper PMC10849652.
This is one part of the list.

Amino acid sequences for entries named in this document (tags omitted). A change or cut given only in a name is not applied to a line headed by its entry.
UniProt Q9H0R6: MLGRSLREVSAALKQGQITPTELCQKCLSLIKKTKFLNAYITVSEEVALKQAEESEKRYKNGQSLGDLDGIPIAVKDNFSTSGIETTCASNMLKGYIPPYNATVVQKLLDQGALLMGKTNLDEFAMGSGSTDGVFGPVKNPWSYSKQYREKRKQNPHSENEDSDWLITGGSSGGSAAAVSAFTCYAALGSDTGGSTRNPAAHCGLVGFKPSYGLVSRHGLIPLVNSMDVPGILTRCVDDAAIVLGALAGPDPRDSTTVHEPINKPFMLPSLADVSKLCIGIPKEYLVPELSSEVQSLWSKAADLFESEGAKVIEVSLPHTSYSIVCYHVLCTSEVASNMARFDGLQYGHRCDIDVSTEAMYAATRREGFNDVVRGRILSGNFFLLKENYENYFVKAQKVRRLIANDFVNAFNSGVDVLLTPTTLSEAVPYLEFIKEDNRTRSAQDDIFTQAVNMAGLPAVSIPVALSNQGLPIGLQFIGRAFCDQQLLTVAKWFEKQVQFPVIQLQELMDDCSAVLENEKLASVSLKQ
UniProt Q7Z6K3: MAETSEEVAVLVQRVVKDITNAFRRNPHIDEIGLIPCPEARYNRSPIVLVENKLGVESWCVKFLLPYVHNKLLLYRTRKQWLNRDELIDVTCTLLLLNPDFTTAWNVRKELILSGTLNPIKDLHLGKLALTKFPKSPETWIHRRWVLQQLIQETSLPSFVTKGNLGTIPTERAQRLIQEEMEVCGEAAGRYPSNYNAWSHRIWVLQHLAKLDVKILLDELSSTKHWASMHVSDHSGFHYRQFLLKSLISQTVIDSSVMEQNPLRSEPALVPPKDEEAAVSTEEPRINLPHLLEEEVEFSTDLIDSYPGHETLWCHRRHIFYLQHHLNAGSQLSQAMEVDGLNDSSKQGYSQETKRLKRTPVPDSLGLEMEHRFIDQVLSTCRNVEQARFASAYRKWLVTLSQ
UniProt Q6ZRP7: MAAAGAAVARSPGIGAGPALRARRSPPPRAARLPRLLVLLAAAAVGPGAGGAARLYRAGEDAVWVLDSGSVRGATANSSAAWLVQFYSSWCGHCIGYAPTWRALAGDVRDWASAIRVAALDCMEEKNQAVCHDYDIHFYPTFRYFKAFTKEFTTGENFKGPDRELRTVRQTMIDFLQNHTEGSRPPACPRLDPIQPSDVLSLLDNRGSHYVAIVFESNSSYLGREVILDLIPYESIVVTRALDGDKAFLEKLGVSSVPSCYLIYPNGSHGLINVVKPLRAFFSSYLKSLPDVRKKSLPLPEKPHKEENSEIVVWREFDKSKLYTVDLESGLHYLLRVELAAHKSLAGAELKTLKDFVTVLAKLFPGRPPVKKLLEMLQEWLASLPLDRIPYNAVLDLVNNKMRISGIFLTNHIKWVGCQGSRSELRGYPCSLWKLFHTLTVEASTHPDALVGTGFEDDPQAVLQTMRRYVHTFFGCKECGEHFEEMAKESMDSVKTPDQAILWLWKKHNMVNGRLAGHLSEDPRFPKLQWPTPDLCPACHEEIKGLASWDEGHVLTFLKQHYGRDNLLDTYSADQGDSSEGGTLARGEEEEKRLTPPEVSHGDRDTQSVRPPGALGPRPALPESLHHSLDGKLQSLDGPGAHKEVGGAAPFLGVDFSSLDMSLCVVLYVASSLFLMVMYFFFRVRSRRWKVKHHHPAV
UniProt Q9BQI7: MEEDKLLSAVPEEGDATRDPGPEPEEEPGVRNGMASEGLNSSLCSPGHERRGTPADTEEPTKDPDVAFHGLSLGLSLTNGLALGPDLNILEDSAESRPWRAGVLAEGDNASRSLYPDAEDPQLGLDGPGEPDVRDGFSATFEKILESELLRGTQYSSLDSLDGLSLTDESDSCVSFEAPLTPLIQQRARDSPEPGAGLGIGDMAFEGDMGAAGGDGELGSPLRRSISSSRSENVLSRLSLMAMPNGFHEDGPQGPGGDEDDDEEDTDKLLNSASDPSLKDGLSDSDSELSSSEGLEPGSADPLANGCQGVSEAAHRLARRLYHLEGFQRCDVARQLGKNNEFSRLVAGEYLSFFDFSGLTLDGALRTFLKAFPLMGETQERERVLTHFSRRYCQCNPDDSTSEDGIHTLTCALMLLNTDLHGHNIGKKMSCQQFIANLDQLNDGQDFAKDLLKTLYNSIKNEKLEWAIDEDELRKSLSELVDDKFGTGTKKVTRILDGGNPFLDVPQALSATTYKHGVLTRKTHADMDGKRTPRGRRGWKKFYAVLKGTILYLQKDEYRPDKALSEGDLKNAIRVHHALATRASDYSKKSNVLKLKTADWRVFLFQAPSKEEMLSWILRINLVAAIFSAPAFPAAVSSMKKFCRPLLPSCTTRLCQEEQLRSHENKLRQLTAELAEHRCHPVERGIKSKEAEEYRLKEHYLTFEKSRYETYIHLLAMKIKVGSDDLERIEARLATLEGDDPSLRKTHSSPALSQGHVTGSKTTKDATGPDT
UniProt Q15185: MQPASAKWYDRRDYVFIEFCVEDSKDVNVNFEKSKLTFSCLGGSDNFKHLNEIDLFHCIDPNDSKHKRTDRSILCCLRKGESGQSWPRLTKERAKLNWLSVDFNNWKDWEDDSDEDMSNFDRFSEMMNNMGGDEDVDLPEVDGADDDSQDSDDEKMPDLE
UniProt Q92932: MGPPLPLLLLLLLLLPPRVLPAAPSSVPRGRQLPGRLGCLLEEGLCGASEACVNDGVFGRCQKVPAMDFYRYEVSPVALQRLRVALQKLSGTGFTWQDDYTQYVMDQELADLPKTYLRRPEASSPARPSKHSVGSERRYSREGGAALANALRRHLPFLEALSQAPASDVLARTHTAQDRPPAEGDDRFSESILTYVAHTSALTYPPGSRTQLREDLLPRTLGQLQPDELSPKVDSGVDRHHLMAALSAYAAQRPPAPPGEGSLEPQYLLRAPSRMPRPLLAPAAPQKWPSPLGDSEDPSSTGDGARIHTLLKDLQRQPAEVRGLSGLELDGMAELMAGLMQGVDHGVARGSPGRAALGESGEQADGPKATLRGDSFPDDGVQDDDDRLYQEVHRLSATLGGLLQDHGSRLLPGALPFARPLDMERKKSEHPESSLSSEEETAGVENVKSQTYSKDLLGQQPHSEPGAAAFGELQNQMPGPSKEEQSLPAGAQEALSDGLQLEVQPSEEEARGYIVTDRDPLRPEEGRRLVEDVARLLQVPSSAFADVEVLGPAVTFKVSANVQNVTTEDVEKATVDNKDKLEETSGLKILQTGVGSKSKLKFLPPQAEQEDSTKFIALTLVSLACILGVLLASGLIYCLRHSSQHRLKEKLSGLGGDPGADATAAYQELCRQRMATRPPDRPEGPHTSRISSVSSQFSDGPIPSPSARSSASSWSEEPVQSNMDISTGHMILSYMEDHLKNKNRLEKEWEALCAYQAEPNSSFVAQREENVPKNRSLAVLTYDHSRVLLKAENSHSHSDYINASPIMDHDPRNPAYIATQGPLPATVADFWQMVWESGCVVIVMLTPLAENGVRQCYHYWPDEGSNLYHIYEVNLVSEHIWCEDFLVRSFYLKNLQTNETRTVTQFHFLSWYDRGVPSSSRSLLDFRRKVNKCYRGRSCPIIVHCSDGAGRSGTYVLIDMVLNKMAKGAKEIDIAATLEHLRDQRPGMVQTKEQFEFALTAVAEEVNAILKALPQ
UniProt Q15032: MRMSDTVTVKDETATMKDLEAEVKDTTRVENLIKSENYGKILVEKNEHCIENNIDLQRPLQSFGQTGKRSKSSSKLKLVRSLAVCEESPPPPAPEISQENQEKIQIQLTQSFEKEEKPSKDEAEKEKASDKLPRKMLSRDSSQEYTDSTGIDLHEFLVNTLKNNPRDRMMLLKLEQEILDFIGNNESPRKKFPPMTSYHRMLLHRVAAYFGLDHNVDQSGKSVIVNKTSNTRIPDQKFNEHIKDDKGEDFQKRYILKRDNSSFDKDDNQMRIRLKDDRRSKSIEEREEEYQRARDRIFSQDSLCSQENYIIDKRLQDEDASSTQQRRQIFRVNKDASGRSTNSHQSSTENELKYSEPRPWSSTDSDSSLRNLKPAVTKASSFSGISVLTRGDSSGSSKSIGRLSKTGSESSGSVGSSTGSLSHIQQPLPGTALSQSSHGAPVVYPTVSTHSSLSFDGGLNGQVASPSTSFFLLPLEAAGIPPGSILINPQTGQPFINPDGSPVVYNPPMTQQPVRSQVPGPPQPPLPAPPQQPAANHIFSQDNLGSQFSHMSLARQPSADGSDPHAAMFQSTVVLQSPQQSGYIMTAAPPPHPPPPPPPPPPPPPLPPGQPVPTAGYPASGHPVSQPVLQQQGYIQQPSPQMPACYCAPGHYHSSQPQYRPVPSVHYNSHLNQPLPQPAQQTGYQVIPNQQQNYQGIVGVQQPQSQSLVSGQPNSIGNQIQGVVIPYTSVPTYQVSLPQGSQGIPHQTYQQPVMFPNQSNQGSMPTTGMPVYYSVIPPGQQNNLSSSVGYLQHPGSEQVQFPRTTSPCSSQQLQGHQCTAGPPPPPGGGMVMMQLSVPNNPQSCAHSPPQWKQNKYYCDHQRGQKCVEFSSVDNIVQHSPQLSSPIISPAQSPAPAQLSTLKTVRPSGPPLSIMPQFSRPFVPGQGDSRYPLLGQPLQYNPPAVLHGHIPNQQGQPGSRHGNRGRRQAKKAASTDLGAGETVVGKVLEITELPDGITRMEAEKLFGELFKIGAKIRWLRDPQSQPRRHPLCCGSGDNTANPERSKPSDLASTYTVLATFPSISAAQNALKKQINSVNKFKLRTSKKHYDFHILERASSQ
UniProt Q9Y617: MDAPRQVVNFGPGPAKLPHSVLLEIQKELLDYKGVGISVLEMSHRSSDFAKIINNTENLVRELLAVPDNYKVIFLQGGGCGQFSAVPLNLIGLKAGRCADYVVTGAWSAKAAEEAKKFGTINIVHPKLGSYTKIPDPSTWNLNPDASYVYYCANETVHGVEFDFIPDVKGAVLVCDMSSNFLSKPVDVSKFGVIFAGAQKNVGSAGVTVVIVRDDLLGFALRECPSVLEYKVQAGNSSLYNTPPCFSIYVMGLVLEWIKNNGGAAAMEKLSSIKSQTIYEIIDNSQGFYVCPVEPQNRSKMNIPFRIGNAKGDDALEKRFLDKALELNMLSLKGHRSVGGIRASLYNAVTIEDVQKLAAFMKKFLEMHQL
UniProt Q9Y606: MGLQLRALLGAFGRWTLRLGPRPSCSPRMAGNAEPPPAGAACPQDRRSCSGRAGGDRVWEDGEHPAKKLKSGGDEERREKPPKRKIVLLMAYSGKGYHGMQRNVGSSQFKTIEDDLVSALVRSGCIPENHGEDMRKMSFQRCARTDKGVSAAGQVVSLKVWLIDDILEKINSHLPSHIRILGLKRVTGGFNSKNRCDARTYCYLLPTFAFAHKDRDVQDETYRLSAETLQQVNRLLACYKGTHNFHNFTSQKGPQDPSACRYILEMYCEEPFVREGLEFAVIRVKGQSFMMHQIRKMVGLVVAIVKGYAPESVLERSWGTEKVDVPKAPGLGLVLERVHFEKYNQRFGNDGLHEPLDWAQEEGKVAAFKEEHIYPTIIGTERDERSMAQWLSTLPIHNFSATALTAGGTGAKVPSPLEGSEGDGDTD
UniProt Q8NDX1: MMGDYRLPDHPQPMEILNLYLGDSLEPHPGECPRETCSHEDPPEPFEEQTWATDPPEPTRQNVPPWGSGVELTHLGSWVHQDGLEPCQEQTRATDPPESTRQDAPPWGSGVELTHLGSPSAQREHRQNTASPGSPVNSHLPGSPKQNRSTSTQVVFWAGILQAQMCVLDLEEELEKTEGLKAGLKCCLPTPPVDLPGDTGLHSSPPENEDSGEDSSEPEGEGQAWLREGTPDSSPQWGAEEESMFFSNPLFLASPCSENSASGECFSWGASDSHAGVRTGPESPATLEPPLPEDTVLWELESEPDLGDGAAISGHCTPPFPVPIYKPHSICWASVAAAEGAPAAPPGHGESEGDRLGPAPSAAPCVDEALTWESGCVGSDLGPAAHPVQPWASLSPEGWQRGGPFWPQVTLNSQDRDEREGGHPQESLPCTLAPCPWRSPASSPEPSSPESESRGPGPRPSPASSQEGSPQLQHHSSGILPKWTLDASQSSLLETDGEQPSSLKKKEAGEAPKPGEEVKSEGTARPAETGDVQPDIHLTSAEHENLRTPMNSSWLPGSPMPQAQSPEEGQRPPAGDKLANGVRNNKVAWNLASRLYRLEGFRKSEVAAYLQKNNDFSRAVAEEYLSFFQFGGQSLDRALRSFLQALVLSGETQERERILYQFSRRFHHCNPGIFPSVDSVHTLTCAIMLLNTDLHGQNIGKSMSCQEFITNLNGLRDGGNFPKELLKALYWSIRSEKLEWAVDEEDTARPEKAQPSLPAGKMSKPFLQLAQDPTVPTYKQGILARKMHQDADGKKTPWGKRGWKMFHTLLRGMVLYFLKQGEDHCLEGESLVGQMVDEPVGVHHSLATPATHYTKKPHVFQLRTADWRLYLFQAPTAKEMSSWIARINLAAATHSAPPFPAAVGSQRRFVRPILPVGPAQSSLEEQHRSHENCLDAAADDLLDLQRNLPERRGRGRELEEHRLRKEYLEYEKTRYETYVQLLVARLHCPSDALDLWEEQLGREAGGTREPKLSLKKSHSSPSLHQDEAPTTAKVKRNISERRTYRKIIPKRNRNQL

Key:
Assay in all cases: log2 fold change, soluble protein after heating vs DMSO (PISA); higher = thermal stabilisation; K562 cells, 10 uM, 30 min; active = over 0.2 and 3.5 SD of the protein, either way, in both replicates (recomputed)
[1] = compound: NC(=O)Nc1cc(-c2cccc(F)c2)sc1C(=O)N[C@H]1CCCNC1
Procedure, shortened: (§1)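 Quantification of soluble protein used TMTpro 16plex LC-MS/MS, with channel sums equalised. Samples were the supernatant after 21,000xg for 90 min of pooled aliquots from K562 cells (2×10^6 cells/mL) treated with 10 μM compound for 30 min, heated for 3 min over 48°C-58°C, and extracted in PBS with 0.5% NP-40 at 4°C. Values, from duplicates, describe thermal stability against control samples on a log2 fold-change scale.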

[2] = compound: NC(=O)c1cnc(N[C@@H]2CCCC[C@@H]2N)nc1Nc1cccc(-n2nccn2)c1
Procedure, shortened: as §1

[3] = compound: NC1(c2ccc(-c3nc4ccn5c(=O)[nH]nc5c4cc3-c3ccccc3)cc2)CCC1
Procedure, shortened: as §1

[4] = compound: NCC(=O)Nc1ccc(-n2nc(C(F)(F)F)cc2-c2ccc3c(ccc4ccccc43)c2)cc1
Procedure, shortened: as §1

entinostat = compound: Nc1ccccc1NC(=O)c1ccc(CNC(=O)OCc2cccnc2)cc1 [entinostat]
Procedure, shortened: as §1

vorinostat = compound: O=C(CCCCCCC(=O)Nc1ccccc1)NO [vorinostat]
Procedure, shortened: as §1

citarinostat = compound: O=C(CCCCCCNC(=O)c1cnc(N(c2ccccc2)c2ccccc2Cl)nc1)NO [citarinostat]
Procedure, shortened: as §1

silmitasertib = compound: O=C(O)c1ccc2c(c1)nc(Nc1cccc(Cl)c1)c1ccncc12 [silmitasertib]
Procedure, shortened: as §1

[5] = compound: O=C1NC(=O)C(c2cnc3ccccn23)=C1c1cn2c3c(cc(F)cc13)CN(C(=O)N1CCCCC1)CC2
Procedure, shortened: as §1

[6] = compound: c1cc(OCCN2CCCCC2)cc(-c2n[nH]c3ccc(-c4nnc[nH]4)cc23)c1
Procedure, shortened: as §1

Measured: log2 fold change

QRSL1 (UniProt Q9H0R6)
inactive: [1] -0.092 | [2] -0.007 | [3] -0.218 | [4] -0.089 | entinostat 0.006 | vorinostat -0.063 | citarinostat 0.053 | silmitasertib -0.049 | [5] -0.084 | [6] -0.036

PTAR1 (UniProt Q7Z6K3)
inactive: [1] -0.041 | [2] -0.015 | [3] -0.031 | [4] 0 | entinostat -0.05 | vorinostat -0.074 | citarinostat -0.049 | silmitasertib -0.021 | [5] -0.024 | [6] 0.229

PSMD4 (UniProt P55036)
inactive: [1] -0.015 | [2] -0.005 | [3] 0.027 | [4] 0.093 | entinostat -0.026 | vorinostat -0.008 | citarinostat -0.016 | silmitasertib -0.027 | [5] 0.026 | [6] -0.068

QSOX2 (UniProt Q6ZRP7)
inactive: [1] -0.003 | [2] -0.027 | [3] -0.049 | [4] 0 | entinostat 0.023 | vorinostat 0 | citarinostat 0.024 | silmitasertib 0.074 | [5] 0.063 | [6] -0.095

PSMB2, A0A087WVV1
inactive: [1] 0.18 | [2] 0.105 | [3] -0.31 | [4] -0.184 | entinostat -0.051 | vorinostat 0.124 | citarinostat 0.062 | silmitasertib 0.082 | [6] 0.064

PTDSS2 (UniProt Q9BVG9)
inactive: [1] -0.001 | [2] -0.073 | [3] -0.069 | [4] -0.1 | entinostat 0.072 | vorinostat 0.09 | citarinostat 0.022 | silmitasertib 0.106 | [5] 0 | [6] 0.046

PSMB10 (UniProt P40306)
inactive: [1] 0.003 | [2] -0.004 | [3] 0.033 | [4] -0.003 | entinostat -0.074 | citarinostat 0.026 | silmitasertib -0.117 | [6] -0.046

PSD2 (UniProt Q9BQI7)
inactive: [1] 0.058 | [2] -0.066 | [3] 0.014 | [4] -0.275 | entinostat 0.152 | silmitasertib 0 | [5] -0.246

PTGES3 (UniProt Q15185)
inactive: [1] -0.043 | [2] -0.006 | [3] -0.123 | [4] 0.017 | entinostat 0.075 | vorinostat 0.002 | citarinostat 0.111 | silmitasertib -0.002 | [5] -0.142 | [6] 0.054

PTPRN2 isoform 3 (UniProt Q92932)
inactive: [1] -0.452 | [2] -0.414 | [3] -0.148 | entinostat -0.121 | citarinostat -0.184 | silmitasertib -0.053 | [5] -0.096 | [6] 0.179

PSMB1 (UniProt P20618)
inactive: [1] 0.029 | [2] 0.055 | [3] 0.045 | [4] 0.084 | entinostat -0.066 | vorinostat 0.035 | citarinostat 0 | silmitasertib 0 | [5] 0.054 | [6] -0.027

R3HDM1 isoform 2 (UniProt Q15032)
inactive: [1] -0.162 | [2] -0.079 | [3] 0.034 | [4] -0.07 | entinostat -0.084 | vorinostat 0.098 | citarinostat 0.029 | silmitasertib -0.08 | [6] 0.106

PWP1 (UniProt Q13610)
inactive: [1] 0.131 | [2] 0.113 | [3] 0.367 | [4] 0.18 | entinostat -0.066 | vorinostat -0.097 | citarinostat -0.186 | silmitasertib 0.216 | [5] 0.253 | [6] -0.238

Fetched one by one from the entries so far (two):
PTAR1 (UniProt Q7Z6K3)
inactive: [1] -0.041 | [2] -0.015 | [3] -0.031 | [4] 0 | entinostat -0.05 | vorinostat -0.074 | citarinostat -0.049 | silmitasertib -0.021 | [5] -0.024 | [6] 0.229

PSMD4 (UniProt P55036)
inactive: [1] -0.015 | [2] -0.005 | [3] 0.027 | [4] 0.093 | entinostat -0.026 | vorinostat -0.008 | citarinostat -0.016 | silmitasertib -0.027 | [5] 0.026 | [6] -0.068

(listing goes on)

PSAT1 (UniProt Q9Y617)
inactive: [1] 0.037 | [2] 0.015 | [3] -0.006 | [4] 0.064 | entinostat 0.003 | vorinostat -0.023 | citarinostat 0.006 | silmitasertib -0.027 | [5] -0.009 | [6] -0.012

PUS1 (UniProt Q9Y606)
inactive: [1] -0.162 | [2] -0.019 | [4] -0.052 | entinostat 0.261 | vorinostat 0.188 | citarinostat 0.188 | [5] 0.087 | [6] -0.19

PSD4 (UniProt Q8NDX1)
inactive: [1] 0.047 | [2] 0.073 | [4] 0.257 | entinostat 0.002 | citarinostat -0.051 | [5] -0.145 | [6] 0.047
